Values from PubChem BioAssay AID652243 (Drosophila RNAi Screening Center, 2013).
Screen: 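Knock-downs that decrease or increase androgen receptor reporter signal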 (primary screen). System: Drosophila S2R+ cells. Reagents: long dsRNA against Drosophila genes. Timing: 72 h (48 h, then 24 h hormone). Challenge: synthetic androgen R1881 at 10 nM for 24 h. Measured: 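Per-well raw luminescence of the androgen-driven firefly reporter and of the Renilla control, two replicates each, without normalisation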. Reading the numbers: firefly reporter light: higher = more light from androgen-responsive reporter; Renilla control light: higher = more constitutive control signal (cell number, transfection). Hit rule: 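Hit when the log firefly-to-Renilla ratio dropped or increased by a fixed fold versus the mean of GFP or LacZ controls across duplicate plates; lowering cut given as 1.5 and as 3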. Meaning of the calls: active = hit: reporter lowered or raised; inactive = no hit.
In all, the deposit lists about 24,000 reagents; this is a random part of those that have a named target and a result. In the full data, 246 (1%) were called active. 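Plates not normalised; calls are printed but the firefly/Renilla ratio behind them is not deposited; fold cut for lowering reported inconsistently.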 The raw values are shown without normalisation. Reagent sequences are not shown. Not stated in the record: the amount of reagent.

| gene | amplicon | firefly reporter light, replicate 1 | firefly reporter light, replicate 2 | Renilla control light, replicate 1 | Renilla control light, replicate 2 | outcome |
| --- | --- | --- | --- | --- | --- | --- |
| CG1233 | DRSC08269 | 1.17e6 | 1.00e6 | 1.20e6 | 1.04e6 | inactive |
| CG1233 | DRSC26110 | 3.40e5 | 3.64e5 | 7.28e5 | 6.91e5 | inactive |
| Acbp4 | DRSC11023 | 1.85e5 | 2.31e5 | 1.82e6 | 2.74e6 | inactive |
| Acbp4 | DRSC28938 | 5.05e5 | 5.66e5 | 9.09e5 | 8.42e5 | inactive |
| Mrtf | DRSC08410 | 17341 | 8606 | 6.44e5 | 3.67e5 | active |
| Mrtf | DRSC23194 | 5.47e5 | 5.46e5 | 9.06e5 | 8.35e5 | inactive |
| Mrtf | DRSC30105 | 9.02e5 | 8.26e5 | 7.79e5 | 8.53e5 | inactive |
| Lcp3 | DRSC07457 | 4.22e5 | 3.20e5 | 2.34e6 | 1.71e6 | inactive |
| Lcp3 | DRSC25185 | 5.53e5 | 4.76e5 | 5.60e5 | 6.18e5 | inactive |
| dls | DRSC37821 | 8.35e5 | 7.53e5 | 1.55e6 | 2.10e6 | inactive |
| COX7AL | DRSC15313 | 59538 | 78636 | 1.68e6 | 1.49e6 | inactive |
| COX7AL | DRSC25198 | 9.03e5 | 9.01e5 | 5.33e5 | 8.81e5 | inactive |
| CG12679 | DRSC20493 | 3.45e5 | 1.70e5 | 1.08e6 | 5.09e5 | inactive |
| CG12679 | DRSC29589 | 3.96e5 | 5.80e5 | 1.72e6 | 1.72e6 | inactive |
| CG7600 | DRSC09681 | 4.97e5 | 3.31e5 | 1.51e6 | 1.21e6 | inactive |
| CG7600 | DRSC25328 | 6.14e5 | 8.33e5 | 6.79e5 | 9.16e5 | inactive |
| dany | DRSC04141 | 2.94e5 | 4.44e5 | 1.73e6 | 1.67e6 | inactive |
| CG42237 | DRSC19891 | 4.93e5 | 5.97e5 | 2.98e6 | 3.21e6 | inactive |
| Phk-3 | DRSC04547 | 3.72e5 | 5.43e5 | 1.93e6 | 2.26e6 | inactive |
| CG13992 | DRSC02324 | 2.16e5 | 2.31e5 | 7.77e5 | 1.02e6 | inactive |
| Dgk | DRSC05064 | 39912 | 22683 | 1.81e5 | 2.08e5 | active |
| Dgk | DRSC05065 | 1.35e5 | 2.52e5 | 3.90e5 | 3.94e5 | inactive |
| Dgk | DRSC06171 | 3.92e5 | 3.54e5 | 2.50e6 | 1.94e6 | inactive |
| Dgk | DRSC06782 | 4.71e5 | 6.32e5 | 1.89e6 | 1.96e6 | active |
| Dgk | DRSC25166 | 3.11e5 | 3.00e5 | 4.07e5 | 3.44e5 | inactive |

Reagents above with an active call (3):
| gene | amplicon | firefly reporter light, replicate 1 | firefly reporter light, replicate 2 | Renilla control light, replicate 1 | Renilla control light, replicate 2 | outcome |
| --- | --- | --- | --- | --- | --- | --- |
| Mrtf | DRSC08410 | 17341 | 8606 | 6.44e5 | 3.67e5 | active |
| Dgk | DRSC05064 | 39912 | 22683 | 1.81e5 | 2.08e5 | active |
| Dgk | DRSC06782 | 4.71e5 | 6.32e5 | 1.89e6 | 1.96e6 | active |
